Values from PubChem BioAssay AID504791 (Drosophila RNAi Screening Center, 2011)

Aim: 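Genes whose knock-down strengthens or weakens small-RNA reporter silencing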 (primary screen)
Cells: Drosophila S2-derived reporter cells
Knock-down reagent: long dsRNA against Drosophila genes, about 150-250 ng dsRNA per well (siRNA assay); about 80-120 ng (miRNA assay)
Timing: about 5 days (siRNA assay); about 4 days (miRNA assay)
Challenge: copper sulfate induction of reporters: 25 µM (siRNA assay); 200 mM stated (miRNA assay), 1-2 days before reading
Detection: 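Dual luciferase assay: Renilla to firefly signal ratio in each well, scaled to the mean ratio of its plate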
Call rule: 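First-pass picks had plate-scaled ratios over 1.5 for the siRNA assay, over 1.6 for the miRNA assay, or under 0.6; two distinct dsRNAs had to score alike on retest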
In all, the deposit lists about 23,000 reagents; below is a random part of those that have a named target and a result. Over the whole deposit, 199 (0.86%) are marked active. 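Plate-scaled ratios behind the calls are not deposited; printed light signals are raw; many rows marked increased or decreased are still called inactive.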 The numbers tell different reagents against one gene apart. A plus sign joins genes that one reagent is predicted to hit. Not stated in the record: the direction of the score.

gene	reagent	stable siRNA reporter change	miRNA reporter change	stable assay Renilla, run 1 (luminescence)	stable assay firefly, run 1 (luminescence)	outcome
Gapdh2	1			5091	3.00e5	inactive
CG5653	1			6378	4.25e5	inactive
Egm	1			8282	4.82e5	inactive
Egm	2			6104	6.87e5	inactive
CG7872	1			8750	5.53e5	inactive
CG6788	1			5920	3.91e5	inactive
CG12699	1			11157	4.65e5	inactive
CG34256	1			6360	5.01e5	inactive
Andorra	1			4651	3.44e5	inactive
yip3	1			7172	3.52e5	inactive
CG7483	1			7095	5.29e5	inactive
CG7483	2			8110	5.13e5	inactive
LSm7	1			8379	5.49e5	inactive
nAChRalpha2	1			8362	2.67e5	inactive
Ror	1			7191	3.85e5	inactive
CG18528	1			7954	4.65e5	inactive
CG11044	1			6410	3.25e5	inactive
CDase	1			7748	3.66e5	inactive
Boh1	1			7333	5.07e5	inactive
CG14324	1			8890	4.68e5	inactive
Nt5c	1			9130	6.20e5	inactive
CG13850	1			7394	3.69e5	inactive
Jhbp2	1			6490	4.96e5	inactive
CG3368	1			8049	4.87e5	inactive
CG5895	1			7123	4.65e5	inactive
Dh44-R2	1			4944	3.00e5	inactive
Dh44-R2	2			5632	3.07e5	inactive
lectin-28C	1			8138	4.22e5	inactive
CG33500	1			4047	3.29e5	inactive
Ugt36A1	1			8168	4.31e5	inactive
Atg10 + CG12822	1			7331	3.97e5	inactive
tou	1			7336	3.98e5	inactive
tou	2			4147	4.43e5	inactive
Klp61F	1			7299	2.89e5	inactive
CG13898	1			5743	3.00e5	inactive
CG14323	1			7100	5.60e5	inactive
P58IPK	1			7087	4.35e5	inactive
rtv	1			7916	3.86e5	inactive
mRpL36	1			6152	4.99e5	inactive
ND-49	1			5903	3.22e5	inactive
sif	1			4652	4.02e5	inactive
sif	2			5762	4.03e5	inactive
sif	3			9760	6.07e5	inactive
sif	4			4299	3.86e5	inactive
Ir40a	1			7479	3.72e5	inactive
Ir40a	2			6927	5.19e5	inactive
CG8677	1		reporter ratio raised past the hit cutoff	10064	4.64e5	inactive
mRpL48	1			7454	4.82e5	inactive
vnd	1			8974	4.67e5	inactive
vnd	2			4267	3.07e5	inactive
vnd	3			3375	3.46e5	inactive
Recs1	1			6654	5.41e5	inactive
Ptp36E	1			7482	5.04e5	inactive
Uqcc1 + CG9948	1			5951	3.98e5	inactive

Records above whose gene name starts with M or m (2):
gene	reagent	stable siRNA reporter change	miRNA reporter change	stable assay Renilla, run 1 (luminescence)	stable assay firefly, run 1 (luminescence)	outcome
mRpL36	1			6152	4.99e5	inactive
mRpL48	1			7454	4.82e5	inactive

More results follow:
gene	reagent	stable siRNA reporter change	miRNA reporter change	stable assay Renilla, run 1 (luminescence)	stable assay firefly, run 1 (luminescence)	outcome
a	1			4760	2.00e5	inactive
a	2			7356	4.01e5	inactive
CCDC151	1			7312	3.91e5	inactive
CG11779	1			10369	5.46e5	inactive
Setx	1			4924	3.69e5	inactive
PMP34	1			9411	6.35e5	inactive
Npc2g	1			5743	4.09e5	inactive
CG9377	1			39817	1.18e6	inactive
Ifrd1	1			6772	5.97e5	inactive
Ifrd1	2			6251	4.16e5	inactive
CG10651	1			6871	4.20e5	inactive
eIF3g1	1		reporter ratio lowered past the hit cutoff	5187	3.24e5	inactive
Sugb	1			7664	4.08e5	inactive
Optix	1			5248	3.97e5	inactive
Optix	2			7903	4.85e5	inactive
Optix	3			9699	5.34e5	inactive
wts	1	reporter ratio raised past the hit cutoff		5288	2.03e5	inactive
wts	2	reporter ratio raised past the hit cutoff		3671	1.60e5	inactive
CG13442	1			6662	5.37e5	inactive
CG31368	1			8714	5.67e5	inactive
CG31368	2			9305	4.86e5	inactive
Hsp83	1	reporter ratio lowered past the hit cutoff		6662	8.75e5	inactive
Mov10	1			11615	4.82e5	inactive
CG16898	1			6176	2.89e5	inactive
CG8813	1			16227	2.08e5	inactive
CG44836	1			7934	3.30e5	inactive
obst-A	1			7498	3.54e5	inactive
CG14200	1			3992	2.66e5	inactive
CG14200	2			4928	4.11e5	inactive
